# The list shows a part of the results.
# B1: a L Fucosidase (Thermotoga maritima) (protein)
# chain: MASMKPRYKPDWESLREHTVPKWFDKAKFGIFIHWGIYSVPGWATPTGELGKVPMDAWFFQNPYAEWYENSLRIKESPTWEYHVKTYGENFEYEKFADLFTAEKWDPQEWADLFKKAGAKYVIPTTKHHDGFCLWGTKYTDFNSVKRGPKRDLVGDLAKAVREAGLRFGVYYSGGLDWRFTTEPIRYPEDLSYIRPNTYEYADYAYKQVMELVDLYLPDVLWNNMGWPEKGKEDLKYLFAYYYNKHPEGSVNDRWGVPHWDFKTAEYHVNYPGDLPGYKWEFTRGIGLSFGYNRNEGPEHMLSVEQLVYTLVDVVSKGGNLLLNVGPKGDGTIPDLQKERLLGLGEWLRKYGDAIYGTSVWERCCAKTEDGTEIRFTRKCNRIFVIFLGIPTGEKIVIEDLNLSAGTVRHFLTGERLSFKNVGKNLEITVPKKLLETDSITLVLEAVEE
# Key:
# Assay in all cases: glycan array binding signal (z-score within array); higher = stronger binding
# Details in all cases: glycan notation: IUPAC condensed, linker removed; mutation: D224N
# [1] = molecular target: Neu5Ac(a2-3)Gal(b1-4)GlcNAc(b1-2)Man(a1-3)[Neu5Ac(a2-6)Gal(b1-4)GlcNAc(b1-2)Man(a1-6)]Man(b1-4)GlcNAc(b1-4)GlcNAc
# How it was run: (§1)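 The binding signal is a Z-score computed within each array. Data were drawn from 3228 arrays in the Consortium for Functional Glycomics database, restricted to those with a known protein sequence. Scores were averaged over arrays of the same protein sequence at different concentrations or buffers, and over linkers, and negative values can be taken as non-binding.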
# [2] = molecular target: Neu5Ac(a2-3)Gal(b1-4)GlcNAc(b1-2)[Neu5Ac(a2-3)Gal(b1-4)GlcNAc(b1-4)]Man(a1-3)[GlcNAc(b1-4)][Neu5Ac(a2-3)Gal(b1-4)GlcNAc(b1-2)[Neu5Ac(a2-3)Gal(b1-4)GlcNAc(b1-6)]Man(a1-6)]Man(b1-4)GlcNAc(b1-4)GlcNAc
# How it was run: as §1
# [3] = molecular target: Neu5Ac(a2-3)Gal(b1-4)GlcNAc(b1-2)[Neu5Ac(a2-3)Gal(b1-4)GlcNAc(b1-4)]Man(a1-3)[GlcNAc(b1-4)][Neu5Ac(a2-3)Gal(b1-4)GlcNAc(b1-4)Man(a1-6)]Man(b1-4)GlcNAc(b1-4)GlcNAc
# How it was run: as §1
# [4] = molecular target: Neu5Ac(a2-3)Gal(b1-4)GlcNAc(b1-2)[Neu5Ac(a2-3)Gal(b1-4)GlcNAc(b1-6)]Man(a1-6)[Neu5Ac(a2-3)Gal(b1-4)GlcNAc(b1-2)Man(a1-3)][GlcNAc(b1-4)]Man(b1-4)GlcNAc(b1-4)GlcNAc
# How it was run: as §1
# [5] = molecular target: Neu5Ac(a2-3)Gal(b1-4)GlcNAc(b1-3)Gal
# How it was run: as §1
# [6] = molecular target: Neu5Ac(a2-3)Gal(b1-4)GlcNAc(b1-3)Gal(b1-3)GlcNAc
# How it was run: as §1
# [7] = molecular target: Neu5Ac(a2-3)Gal(b1-4)GlcNAc(b1-3)Gal(b1-4)GlcNAc
# How it was run: as §1
# [8] = molecular target: Neu5Ac(a2-3)Gal(b1-4)GlcNAc(b1-3)Gal(b1-4)GlcNAc(b1-2)Man(a1-3)[Neu5Ac(a2-3)Gal(b1-4)GlcNAc(b1-3)Gal(b1-4)GlcNAc(b1-2)Man(a1-6)]Man(b1-4)GlcNAc(b1-4)GlcNAc
# How it was run: as §1
# [9] = molecular target: Neu5Ac(a2-3)Gal(b1-4)GlcNAc(b1-3)Gal(b1-4)GlcNAc(b1-3)Gal(b1-4)GlcNAc
# How it was run: as §1
# [10] = molecular target: Neu5Ac(a2-3)Gal(b1-4)GlcNAc(b1-3)Gal(b1-4)GlcNAc(b1-3)Gal(b1-4)GlcNAc(b1-2)Man(a1-3)[Neu5Ac(a2-3)Gal(b1-4)GlcNAc(b1-3)Gal(b1-4)GlcNAc(b1-3)Gal(b1-4)GlcNAc(b1-2)Man(a1-6)]GalNAc
# How it was run: as §1
# [11] = molecular target: Neu5Ac(a2-3)Gal(b1-4)GlcNAc(b1-3)Gal(b1-4)GlcNAc(b1-3)GalNAc
# How it was run: as §1
# [12] = molecular target: Neu5Ac(a2-3)Gal(b1-4)GlcNAc(b1-3)Gal(b1-4)GlcNAc(b1-3)[Neu5Ac(a2-3)Gal(b1-4)GlcNAc(b1-3)Gal(b1-4)GlcNAc(b1-6)]GalNAc
# How it was run: as §1
# [13] = molecular target: Neu5Ac(a2-3)Gal(b1-4)GlcNAc(b1-3)Gal(b1-4)GlcNAc(b1-6)[Gal(b1-3)]GalNAc
# How it was run: as §1
# [14] = molecular target: Neu5Ac(a2-3)Gal(b1-4)GlcNAc(b1-3)Gal(b1-4)[Fuc(a1-3)]GlcNAc
# How it was run: as §1
# [15] = molecular target: Neu5Ac(a2-3)Gal(b1-4)GlcNAc(b1-3)GalNAc
# How it was run: as §1
# [16] = molecular target: Neu5Ac(a2-3)Gal(b1-4)GlcNAc(b1-3)[Neu5Ac(a2-3)Gal(b1-4)GlcNAc(b1-6)]GalNAc
# How it was run: as §1
# [17] = molecular target: Neu5Ac(a2-3)Gal(b1-4)GlcNAc(b1-6)GalNAc
# How it was run: as §1
# [18] = molecular target: Neu5Ac(a2-3)Gal(b1-4)GlcNAc(b1-6)[Gal(b1-3)]GalNAc
# How it was run: as §1
# [19] = molecular target: Neu5Ac(a2-3)Gal(b1-4)GlcNAc(b1-6)[Neu5Ac(a2-3)Gal(b1-3)]GalNAc
# How it was run: as §1
# [20] = molecular target: Neu5Ac(a2-3)Gal(b1-4)GlcNAc6S
# How it was run: as §1
# [21] = molecular target: Neu5Ac(a2-3)Gal(b1-4)[Fuc(a1-3)]GlcNAc
# How it was run: as §1
# [22] = molecular target: Neu5Ac(a2-3)Gal(b1-4)[Fuc(a1-3)]GlcNAc(b1-2)Man
# How it was run: as §1
# [23] = molecular target: Neu5Ac(a2-3)Gal(b1-4)[Fuc(a1-3)]GlcNAc(b1-3)Gal
# How it was run: as §1
# [24] = molecular target: Neu5Ac(a2-3)Gal(b1-4)[Fuc(a1-3)]GlcNAc(b1-3)Gal(b1-4)GlcNAc
# How it was run: as §1
# [25] = molecular target: Neu5Ac(a2-3)Gal(b1-4)[Fuc(a1-3)]GlcNAc(b1-3)Gal(b1-4)[Fuc(a1-3)]GlcNAc(b1-3)Gal(b1-4)[Fuc(a1-3)]GlcNAc
# How it was run: as §1
# [26] = molecular target: Neu5Ac(a2-3)Gal(b1-4)[Fuc(a1-3)]GlcNAc(b1-3)GalNAc
# How it was run: as §1
# [27] = molecular target: Neu5Ac(a2-3)Gal(b1-4)[Fuc(a1-3)]GlcNAc(b1-6)[Gal(b1-3)]GalNAc
# How it was run: as §1
# [28] = molecular target: Neu5Ac(a2-3)Gal(b1-4)[Fuc(a1-3)]GlcNAc(b1-6)[Neu5Ac(a2-3)Gal(b1-3)]GalNAc
# How it was run: as §1
# [29] = molecular target: Neu5Ac(a2-3)Gal(b1-4)[Fuc(a1-3)]GlcNAc6S
# How it was run: as §1
# [30] = molecular target: Neu5Ac(a2-3)Gal6S(b1-4)GlcNAc
# How it was run: as §1
# [31] = molecular target: Neu5Ac(a2-3)Gal6S(b1-4)[Fuc(a1-3)]GlcNAc
# How it was run: as §1
# [32] = molecular target: Neu5Ac(a2-3)GalNAc
# How it was run: as §1
# [33] = molecular target: Neu5Ac(a2-3)GalNAc(b1-4)GlcNAc
# How it was run: as §1
# [34] = molecular target: Neu5Ac(a2-3)[GalNAc(b1-4)]Gal(b1-4)Glc
# How it was run: as §1
# [35] = molecular target: Neu5Ac(a2-3)[GalNAc(b1-4)]Gal(b1-4)GlcNAc
# How it was run: as §1
# [36] = molecular target: Neu5Ac(a2-3)[GalNAc(b1-4)]Gal(b1-4)GlcNAc(b1-3)GalNAc
# How it was run: as §1
# [37] = molecular target: Neu5Ac(a2-3)[Neu5Ac(a2-6)]GalNAc
# How it was run: as §1
binder,measurement,setting,value
B1,glycan array binding signal (z-score),[1],-0.138
same,glycan array binding signal (z-score),[2],-0.306
same,glycan array binding signal (z-score),[3],-0.713
same,glycan array binding signal (z-score),[4],0.078
same,glycan array binding signal (z-score),[5],-0.187
same,glycan array binding signal (z-score),[6],-0.197
same,glycan array binding signal (z-score),[7],-0.169
same,glycan array binding signal (z-score),[8],0.311
same,glycan array binding signal (z-score),[9],-0.59
same,glycan array binding signal (z-score),[10],0.417
same,glycan array binding signal (z-score),[11],0.729
same,glycan array binding signal (z-score),[12],0.676
same,glycan array binding signal (z-score),[13],0.668
same,glycan array binding signal (z-score),[14],1.75
same,glycan array binding signal (z-score),[15],1.48
same,glycan array binding signal (z-score),[16],0.483
same,glycan array binding signal (z-score),[17],-0.257
same,glycan array binding signal (z-score),[18],1.11
same,glycan array binding signal (z-score),[19],-0.328
same,glycan array binding signal (z-score),[20],0.062
same,glycan array binding signal (z-score),[21],-0.941
same,glycan array binding signal (z-score),[22],0.826
same,glycan array binding signal (z-score),[23],-0.228
same,glycan array binding signal (z-score),[24],1.9
same,glycan array binding signal (z-score),[25],-0.451
same,glycan array binding signal (z-score),[26],1.3
same,glycan array binding signal (z-score),[27],0.565
same,glycan array binding signal (z-score),[28],2.83
same,glycan array binding signal (z-score),[29],0.85
same,glycan array binding signal (z-score),[30],-0.146
same,glycan array binding signal (z-score),[31],-0.732
same,glycan array binding signal (z-score),[32],-0.501
same,glycan array binding signal (z-score),[33],0.543
same,glycan array binding signal (z-score),[34],-0.787
same,glycan array binding signal (z-score),[35],-0.393
same,glycan array binding signal (z-score),[36],0.719
same,glycan array binding signal (z-score),[37],-0.164

# Reformatted as tab-separated lines: entries from further up.
binder	measurement	setting	value
B1	glycan array binding signal (z-score)	[6]	-0.197
same	glycan array binding signal (z-score)	[7]	-0.169
same	glycan array binding signal (z-score)	[8]	0.311

# From the supplement of paper PMC8728848
